Experimental data taken from publication PMC12094996.
Results are given in words; binding and its absence hold for the method and conditions named. Binding seen in cells or lysates may run through a third protein. Some entries that bind do so weakly or less than the wild type.

Amino acid sequences for entries named in this document (tags omitted). Residues count along the entry.
UniProt O15460, residues 22-535: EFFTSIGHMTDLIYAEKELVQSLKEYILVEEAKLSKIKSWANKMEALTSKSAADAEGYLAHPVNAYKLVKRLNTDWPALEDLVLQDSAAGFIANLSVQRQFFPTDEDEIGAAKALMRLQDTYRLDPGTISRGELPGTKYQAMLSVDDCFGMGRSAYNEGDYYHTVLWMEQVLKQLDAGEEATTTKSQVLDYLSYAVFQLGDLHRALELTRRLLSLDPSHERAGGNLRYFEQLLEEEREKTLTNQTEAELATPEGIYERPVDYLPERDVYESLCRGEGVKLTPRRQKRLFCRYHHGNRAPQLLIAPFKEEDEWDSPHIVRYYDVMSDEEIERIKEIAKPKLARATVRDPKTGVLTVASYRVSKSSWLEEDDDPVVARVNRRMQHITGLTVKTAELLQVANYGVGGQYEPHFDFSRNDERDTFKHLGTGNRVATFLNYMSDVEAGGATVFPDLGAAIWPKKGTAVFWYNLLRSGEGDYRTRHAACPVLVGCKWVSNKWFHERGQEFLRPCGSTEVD
UniProt P42224: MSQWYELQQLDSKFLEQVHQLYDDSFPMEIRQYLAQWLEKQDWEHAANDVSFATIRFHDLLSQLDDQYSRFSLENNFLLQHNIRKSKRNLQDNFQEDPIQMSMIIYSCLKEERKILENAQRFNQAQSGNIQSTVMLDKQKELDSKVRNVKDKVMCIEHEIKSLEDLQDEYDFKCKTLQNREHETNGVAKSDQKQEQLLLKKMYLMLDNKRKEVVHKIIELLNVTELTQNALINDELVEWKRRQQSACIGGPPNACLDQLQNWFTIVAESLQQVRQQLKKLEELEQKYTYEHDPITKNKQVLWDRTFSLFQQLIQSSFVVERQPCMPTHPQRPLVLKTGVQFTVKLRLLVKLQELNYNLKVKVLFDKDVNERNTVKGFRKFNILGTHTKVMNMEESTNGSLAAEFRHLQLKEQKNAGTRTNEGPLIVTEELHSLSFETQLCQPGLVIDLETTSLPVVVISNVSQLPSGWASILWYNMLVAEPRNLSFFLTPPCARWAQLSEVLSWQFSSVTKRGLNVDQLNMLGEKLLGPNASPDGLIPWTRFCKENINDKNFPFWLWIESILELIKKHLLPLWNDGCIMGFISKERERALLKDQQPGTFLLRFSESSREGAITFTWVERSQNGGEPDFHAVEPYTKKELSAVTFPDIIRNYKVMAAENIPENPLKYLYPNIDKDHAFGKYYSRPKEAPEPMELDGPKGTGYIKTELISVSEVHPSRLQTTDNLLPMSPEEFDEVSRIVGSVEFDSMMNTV

Target: prolyl 4-hydroxylase subunit alpha 2 (P4HA2) (human (endogenous in HCT8)) (UniProt O15460)
Assay: co-IP; HCT8 cell lysate; Crosslink Magnetic IP/Co-IP Kit; IP with 5 ug P4HA2 polyclonal antibody (ab70887) on magnetic beads, overnight at 4°C; rabbit IgG as negative control; Western blot for P4HA2 and STAT1

binding: binds
Substance: STAT1 (from UniProt P42224 1-750)
